For some of these results: A negative result means that nothing was seen under these conditions. For some of these results: At least one verdict rests on a figure or table, not on a statement of the authors. For some of these results: Weaker means in comparison with the reference protein, sequence or condition of that experiment. For some of these results: The exact form of at least one protein or probe is not confirmed.
Legend:
Assay in all cases: EMSA
[1] = tested on: Ded1 wild type + Xpo1 + Ran[GTP] Q71L; conditions: 3 mM AMP-PNP, GTP, slower-migrating complex, Ded1:RNA bands still visible, overall binding reduced; EMSA: 50 mM Tris pH 7.8, 60 mM NaCl, 2 mM MgCl2, 0.1 mg/mL BSA, 5% glycerol, 1 U/uL RNasin Plus, 0.01% NP-40, 1 mM DTT; 900 nM Ded1, 10 nM RNA, 20 min room temperature; recombinant protein
[2] = biological target: Ded1 I13A (Saccharomyces cerevisiae) (UniProt P06634); conditions: 3 mM AMP-PNP, EMSA: 50 mM Tris pH 7.8, 60 mM NaCl, 2 mM MgCl2, 0.1 mg/mL BSA, 5% glycerol, 1 U/uL RNasin Plus, 0.01% NP-40, 1 mM DTT, 900 nM Ded1, 10 nM RNA, 20 min room temperature, recombinant protein, residues 1-604
[3] = biological target: Ded1 wild type (Saccharomyces cerevisiae) (UniProt P06634); conditions: without AMP-PNP (supershifts stated to depend on AMP-PNP); EMSA: 50 mM Tris pH 7.8, 60 mM NaCl, 2 mM MgCl2, 0.1 mg/mL BSA, 5% glycerol, 1 U/uL RNasin Plus, 0.01% NP-40, 1 mM DTT; 900 nM Ded1, 10 nM RNA, 20 min room temperature; recombinant protein; residues 1-604

“CGAAUUCAAAACAAAACAAAACUAG [25mer FAM-labeled ssRNA]”: binds more weakly [1]; binds ([2]; with 990 nM Xpo1 and 1.17 uM Ran[GTP]Q71L, no additional supershift (no ternary complex)); binds ([2]; without Xpo1/Ran). “CGAAUUCAAAACAAAACAAAACUAG [25mer FAM-labeled ssRNA]”: no binding [3].
